Source: PubChem BioAssay AID1347075 (National Center for Advancing Translational Sciences (NCATS), 2019)
In all, about 400,000 compounds went through this assay and about 5,500 (1.4%) were called active. Inconclusive means that the source gave no clear call. Such entries were picked first, then a sample of the others. Calls follow the shape of the dose curve; as a rule, active = well fitted cell-killing curve with a large enough effect; inconclusive = small, poorly fitted or top-dose-only effect, or effect the other way; inactive = flat fitted curve, though single readings scatter. A potency beside an inconclusive call is a rough fit, not a confirmed value.

Assay: qHTS assay for MDR1-selective chemotherapeutics: Primary screen using the parental adenocarcinoma cell KB-3-1; also: nearly all actives have a fitted effect of over 60% in size
Settings: KB-3-1 viability, CellTiter-Glo ATP luminescence, 72 h; activity change, negative = cytotoxic: at 46.1 µM (top of the series)
Method in brief: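 Screening of KB-3-1 cells (DMEM, 10% FBS, phenol-red free) ran from lowest to highest compound concentration; after 72 h at 37 °C viability was read luminescently and curves fitted.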
% is scaled to controls: 0 for no effect and ±100 for the full control effect; potency is read from the fitted curve at half-maximal effect.

Compound | activity change, negative = cytotoxic | Potency
O=C(c1ccccc1)c1cc([N+](=O)[O-])ccc1N1CCCC1 | inconclusive: -2.42% | 
C=CCn1c(-c2cccn(Cc3ccc(Cl)cc3Cl)c2=O)n[nH]c1=S |  | inconclusive: 29.1 µM [cytotoxic, single point]
COCCn1c(N)c(Sc2ccc(Cl)cc2)c(=O)[nH]c1=O |  | inconclusive: 29.1 µM [rising, partial curve, poor fit]
c1ccc(CCc2ccccc2-c2nc(-c3ccccn3)no2)cc1 |  | inconclusive: 29.1 µM [cytotoxic, single point]
OC(CNCC1CCCO1)Cn1c2ccc(Br)cc2c2cc(Br)ccc21 (stereo not given) |  | inconclusive: 29.1 µM [cytotoxic, single point]
CC(=O)Nc1ccc(S(=O)(=O)NCCCc2ccccc2)cc1 |  | inactive
OC(CN1C2=NCCN2c2ccccc21)c1ccc2c(c1)OCO2 (stereo not given) |  | inconclusive: 18.4 µM [cytotoxic, single point]
Cc1ccc(S(=O)(=O)c2cccc(S(=O)(=O)N3CCCC3)c2)cc1S(=O)(=O)N1CCCC1 |  | active: 20.6 µM
Clc1cccc(CN2CCN(Cc3nc(CCc4ccccc4)no3)CC2)c1 |  | inactive
COc1ccc(COC(=O)c2cccc(S(=O)(=O)N3CCN(C(C)=O)CC3)c2)cc1 |  | inactive
O=C(Nc1ccc(S(=O)(=O)NCc2ccco2)cc1)c1ccc(F)cc1 | inconclusive: -11.1% | 
O=C1NC(=O)C(=Cc2ccccc2)N1 |  | inconclusive: 29.1 µM [rising, single point]
O=C(Nc1cccc(C(=O)Nc2ccc(Cl)cn2)c1)c1ccccc1 |  | inactive
COc1ccc(C(=O)NCC(=O)N/N=C/c2ccc([N+](=O)[O-])s2)cc1OC |  | inconclusive: 20.6 µM [cytotoxic, single point]
COc1ccc(C2CC(c3ccc4ccccc4c3OC(C)=O)=NN2C(=O)/C=C/c2ccccc2)cc1 (stereo not given) |  | inconclusive: 29.1 µM [cytotoxic, single point]
CCCOc1ccc(C(=O)Nc2cc(S(=O)(=O)N3CCOCC3)ccc2N2CCOCC2)cc1 |  | inconclusive: 23.1 µM [cytotoxic, single point]
CC1CCN(S(=O)(=O)c2cccc(C(=O)O)c2)CC1 |  | inactive
COC(=O)c1ccc(NC(=O)c2c(NCc3cccc(F)c3)sc3c2CCCC3)cc1 |  | inactive
NS(=O)(=O)c1ccc(N=Nc2c(=O)[nH]n3c(=O)c4c([nH]c23)CCCC4)cc1 |  | inconclusive: 2.31 µM [rising, full curve]
CC(C)c1nc(SCC(=O)Nc2cccc3ccccc23)n[nH]1 |  | inactive
COc1ccc(CCC(=O)Nc2ccc(N3CCOCC3)c(S(=O)(=O)Nc3ccc(OC)cc3)c2)cc1 |  | inactive
COC(=O)C1=C(C)OC(N)=C(C#N)C1c1ccccc1F (stereo not given) |  | inactive
CC1(C(=O)Nc2cccc(C(F)(F)F)c2)Cc2c(-c3cccc(C(N)=O)c3)ccnc2O1 (stereo not given) |  | inactive

Compound | activity change, negative = cytotoxic | Potency
C=C1C(=O)OCC2C(C(=O)O)=CC3C(C)C(C)=CC123 (stereo not given) |  | inconclusive: 23.1 µM [cytotoxic, single point]
COc1ccc(CCNC(=O)COC(=O)c2cc(OC)c(OC)cc2OC)cc1OC |  | inactive
COc1cc(F)ccc1S(=O)(=O)N1CCN(C23CC4CC(CC(C4)C2)C3)CC1 | inconclusive: -5.44% | 
Cc1[nH]c2ccccc2c1C1(O)C(=O)N(Cc2ccc3c(c2)OCO3)c2ccccc21 (stereo not given) |  | inconclusive: 6.51 µM [cytotoxic, partial curve, poor fit]
COc1ccc(C(=O)NCCn2cc(SCC(=O)Nc3ccc4c(c3)OCCO4)c3ccccc32)cc1 |  | inconclusive: 18.4 µM [cytotoxic, single point]
CC(C)CCNC(=O)c1c(CSc2ccc(Cl)cc2)noc1C(=O)NCc1ccccc1 |  | inactive
Cc1ccccc1-n1ccnc1SCC(=O)Nc1cccc(S(=O)(=O)NC2=NCCC2)c1 |  | inconclusive: 18.4 µM [cytotoxic, partial curve, poor fit]
CCCCCCN1C[C@@H](n2cc(COC(=O)c3ccccc3)nn2)[C@H](O)C[C@@H]1c1ccc(Cl)cc1 |  | inactive
COCCN(C(=O)CCC(=O)Nc1ccccn1)C(C(=O)NC(C)C)c1ccc(C)cc1 (stereo not given) |  | inactive
COc1cccc(C(=O)Nc2cc(NC(=O)c3cccs3)ccc2C)c1OC |  | inconclusive: 29.1 µM [cytotoxic, partial curve, poor fit]
CC(C)c1ccc2[nH]c(O)c(N=NC(=O)c3cccc(S(=O)(=O)N4CCCCC4)c3)c2c1 |  | inconclusive: 11.6 µM [cytotoxic, partial curve, poor fit]
CCc1noc(C)c1C(=O)Oc1ccc(N(C)S(=O)(=O)c2ccc(C)c(C)c2)cc1 |  | inconclusive: 29.1 µM [cytotoxic, single point]
Cc1cccc(C(=O)NCCc2nc3ccccc3n2Cc2ccccc2Cl)c1 |  | inactive
CCOc1ccc(Nc2nc3c(c(=O)[nH]2)CCCC3)cc1 |  | inactive
CCCCNC(=S)N1CCn2cccc2C1c1ccc(F)cc1 (stereo not given) |  | inconclusive: 23.1 µM [cytotoxic, single point]
COc1cccc(CNC(=O)N2CCc3c(sc4c3CCCC4)C2c2ccc(F)cc2)c1 (stereo not given) |  | inconclusive: 29.1 µM [cytotoxic, single point]
CN(C)S(=O)(=O)c1cccc(NC(=O)c2ccc3c(c2)OCCO3)c1 |  | inactive
CCOC(=O)C1CCN(S(=O)(=O)c2ccc3[nH]c(=O)oc3c2)CC1 | inconclusive: -26.5% | 
COc1ccc(/C=C/CN2CCC(CO)(Cc3ccccc3Cl)CC2)cc1 |  | inconclusive: 14.6 µM [cytotoxic, partial curve, poor fit]
O=C1CC(SC(=Nc2ccccc2)Nc2ccccc2)C(=O)N1c1cccc(Cl)c1 (stereo not given) |  | inconclusive: 20.6 µM [cytotoxic, single point]
COc1ccc(OC)c(NS(=O)(=O)c2ccc(NC(=O)c3ccc(NS(C)(=O)=O)cc3)cc2)c1 |  | active: 16.4 µM
CC(C)(C)NC(=O)[C@@H]1C[C@@H]2CCCC[C@@H]2CN1C[C@@H](O)[C@H](Cc1ccccc1)NC(=O)[C@H](CC(N)=O)NC(=O)c1ccc2ccccc2n1 |  | inconclusive: 18.4 µM [cytotoxic, single point]

Taken from the listing, 2 compounds:
Compound | activity change, negative = cytotoxic | Potency
COc1cc(F)ccc1S(=O)(=O)N1CCN(C23CC4CC(CC(C4)C2)C3)CC1 | inconclusive: -5.44% | 
Cc1[nH]c2ccccc2c1C1(O)C(=O)N(Cc2ccc3c(c2)OCO3)c2ccccc21 (stereo not given) |  | inconclusive: 6.51 µM [cytotoxic, partial curve, poor fit]
